Test results as given in the supplement of paper PMC5407854, “Inhibitor of ppGalNAc-T3-mediated O-glycosylation blocks cancer cell invasiveness and lowers FGF23 levels” (eLife, 2017).
The list shows a part of the results. Small differences around the control level are noise.

test system: ppGalNAc-T2 sensor; experiment: T2 sensor activation Q score (MG/GFP ratio z-score vs DMSO controls) (SD units); higher = more sensor activation (inhibition of ppGalNAc-T2 glycosylation); details: HEK293 sensor cells; 10 µM; 6 h
Procedure: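 Cells were treated with compound at 10 uM for 6 h, then MG/GFP ratio was read by flow cytometry (10,000 cells per well, duplicate wells). Q = (R - R_neg)/SD_neg relative to DMSO vehicle controls; the signal rises when the glycosyltransferase is inhibited.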

| Compound | T2 sensor activation Q score |
| --- | --- |
| CCOc1ccc(CN2CCN(c3ccccn3)CC2)cc1 | 1.49 |
| NNC(=O)COc1ccc(Cl)cc1Cl | -0.24 |
| CN(C)C1=C(Nc2cccc(Cl)c2)C(=O)c2ccccc2C1=O | -0.935 |
| c1ccc(CN2CCC(NC3C4CC5CC(C4)CC3C5)CC2)cc1 (stereo not given) | -0.805 |
| CCN(CC)S(=O)(=O)c1cc(C(=O)O)ccc1Br | -1.1 |
| CC(O)C#CCN(Cc1ccccc1)C(C)C (stereo not given) | -0.99 |
| Nc1ccc2oc(-c3ccc(Cl)cc3)nc2c1 | -0.48 |
| CCOc1ccccc1N1CCN(Cc2ccc(N(C)C)cc2)CC1 | 0.33 |
| COc1cc(OC)c(C(C)=O)c(OC)c1 | -0.155 |
| CCOC(=O)N1CCN(Cc2cc(C)ccc2C)CC1 | 0.665 |
| COc1ccc2nc(N=C(N)N)nc(C)c2c1 | -0.075 |
| COc1ccc(Br)cc1S(=O)(=O)N1CC(C)CC(C)C1 (stereo not given) | 0.91 |
| Cc1ccn2cc(-c3ccc(Cl)cc3)nc2c1 | -1.76 |
| CCOc1cc(CN2CCN(c3cccc(C)c3C)CC2)ccc1O | -0.16 |
| COc1ccccc1NC1=CC(=O)CC(c2ccccc2)C1 (stereo not given) | 0.01 |
| Cn1c(COc2ccccc2Br)nc2ccccc21 | 0.36 |
| CCOc1ccccc1CN1CCN(c2ccc([N+](=O)[O-])cc2)CC1 | -1.54 |
| Cc1cc(C)n(-c2nc3ccccc3s2)n1 | -0.42 |
| CN(C)Cc1ccccc1C(O)(c1ccccc1)c1ccccc1 | 0.775 |
| NC(=O)C1CCN(Cc2ccc(Br)cc2)CC1 | -0.12 |

Arranged by heavy-atom count (rising): seven of the compounds above

| Compound | T2 sensor activation Q score |
| --- | --- |
| NNC(=O)COc1ccc(Cl)cc1Cl | -0.24 |
| COc1cc(OC)c(C(C)=O)c(OC)c1 | -0.155 |
| NC(=O)C1CCN(Cc2ccc(Br)cc2)CC1 | -0.12 |
| CCOC(=O)N1CCN(Cc2cc(C)ccc2C)CC1 | 0.665 |
| COc1ccccc1NC1=CC(=O)CC(c2ccccc2)C1 (stereo not given) | 0.01 |
| c1ccc(CN2CCC(NC3C4CC5CC(C4)CC3C5)CC2)cc1 (stereo not given) | -0.805 |
| CCOc1cc(CN2CCN(c3cccc(C)c3C)CC2)ccc1O | -0.16 |

The listing continues.

| Compound | T2 sensor activation Q score |
| --- | --- |
| Nc1nnc(COc2ccccc2)s1 | 1.65 |
| CN1CCN(C(=O)c2ccccc2[N+](=O)[O-])CC1 | -0.125 |
| CN1CCN(S(=O)(=O)c2ccccc2)CC1 | 0.035 |
| O=C1NC(c2ccccc2)C(=C(O)c2ccccc2)C1=O (stereo not given) | -0.175 |
| O=C(Nc1ccccc1)Nc1ccccc1C#Cc1ccccc1 | -0.14 |
| Cc1ccc(NC(=O)COc2ccc(Cl)cc2Cl)cc1 | 0.245 |
| Cc1cc(C)c(S(=O)(=O)N2CCCC2=O)c(C)c1 | 0.26 |
| O=C(Nc1cc(NC(=O)c2ccccc2)cc(-c2nc3ccccc3o2)c1)c1ccccc1 | -0.28 |
| Cc1cccc(C)c1NC(=O)CNc1ccccc1 | -1.49 |
| CN(C)CCN(C)Cc1ccccc1 | -0.245 |
| CN(C)CCN(C)Cc1cccc(Cl)c1Cl | 0.165 |
| COc1ccc(CN2CCSCC2)c(OC)c1OC | 1.5 |
| CN(CC(=O)O)c1ccccc1C(=O)O | -1.48 |
| Cc1ccc(S(=O)(=O)Nc2cccc3ccc(-n4nc(C)cc4C)nc23)cc1 | 0.24 |
| COc1ccc(CN2CCN(c3cccc(C)c3C)CC2)c(OC)c1 | 1.12 |
| Cc1ccc(S(=O)(=O)NC2CCCCC2)c2nsnc12 | -0.035 |
| O=C(CCSc1ccccc1)Nc1cccc(F)c1 | -0.105 |
| COc1nc(Nc2ccc(C)cc2)nc(OC)n1 | -0.245 |
| Cc1ccc(NC(=O)c2ccc(C(C)(C)C)cc2)cc1 | 1.08 |
| COCc1nc2c(c(=O)[nH]1)C1(CCCCC1)Cc1ccccc1-2 | 0.105 |
